Library screening results

Amino acid sequences for entries named in this document (tags omitted).
UniProt E9BF75, entry or part of it: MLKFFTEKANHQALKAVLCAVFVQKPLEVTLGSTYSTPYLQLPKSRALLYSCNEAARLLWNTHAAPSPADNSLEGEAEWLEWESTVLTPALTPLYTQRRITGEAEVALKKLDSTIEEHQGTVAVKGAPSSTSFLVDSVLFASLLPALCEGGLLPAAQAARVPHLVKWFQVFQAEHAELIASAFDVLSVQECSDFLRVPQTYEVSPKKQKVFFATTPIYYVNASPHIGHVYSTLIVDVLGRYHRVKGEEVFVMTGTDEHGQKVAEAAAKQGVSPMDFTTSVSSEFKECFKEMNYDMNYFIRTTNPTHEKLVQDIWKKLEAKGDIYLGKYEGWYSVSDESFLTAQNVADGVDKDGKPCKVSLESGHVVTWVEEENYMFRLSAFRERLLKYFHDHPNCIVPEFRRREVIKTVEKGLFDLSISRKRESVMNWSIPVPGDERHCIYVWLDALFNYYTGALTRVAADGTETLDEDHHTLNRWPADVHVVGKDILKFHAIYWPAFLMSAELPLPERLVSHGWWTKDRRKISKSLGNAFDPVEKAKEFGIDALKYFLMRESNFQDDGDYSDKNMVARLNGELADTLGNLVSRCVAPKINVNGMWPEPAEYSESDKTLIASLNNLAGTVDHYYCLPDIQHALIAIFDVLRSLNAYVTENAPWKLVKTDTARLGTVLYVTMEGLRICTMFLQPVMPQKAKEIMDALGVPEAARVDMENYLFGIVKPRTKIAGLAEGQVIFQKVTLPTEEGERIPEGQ

Source: ChEMBL document CHEMBL3988442, “University of Dundee, Small-Polar-MMV Screening Library” (2021).

Mtb heat-shock: 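Assay on Mycobacterium tuberculosis, filed only as a heat shock assay from Cornell; the read-out is not stated. The concentration is filed as 10 mM, unlikely as a test dose, so the dose is not known. The record gives no direction; compounds that gave an IC50 in retests scored well above the rest, so higher reads as stronger inhibition. Size under these conditions: about 69,000 compounds, about 930 of them at 50% or above in at least one test.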
LdMetRS: 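Methionyl-tRNA synthetase (putative), Leishmania donovani (UniProt E9BF75). Primary screen of methionyl-tRNA synthetase; the read-out is not stated. The test concentration is not given. The values are filed as inhibition. Of about 68,000 compounds tested this way, about 24 (0.035%) reached 50% or more in at least one test.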
Mtb growth Cornell: 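Whole-cell assay for inhibitors of Mycobacterium tuberculosis growth, labelled Cornell in the record; the read-out is not stated. The concentration is filed as 10 mM, unlikely as a test dose, so the dose is not known. The record gives no direction; compounds strong in two other growth screens of this library score well above the rest, so higher reads as stronger inhibition. About 53,000 compounds were tested under these conditions; 1.7% (about 900) showed 50% or more at least once.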

Results are percentages, as filed.
The record does not define 0% and 100%; most values in the screen are far below 50% and negative numbers occur (in some assays of this library far below -100).
Compounds were drawn at random from those tested, without regard to their results.
A dash means the value is not listed here; it may have been measured.

compound,Mtb heat-shock,LdMetRS,Mtb growth Cornell
CCCS(=O)(=O)N1CCN(c2ccnc(N3CCCC3)n2)CC1,3.842,9.63,-0.1963
Cc1ccc(N2CCC3(CCN(Cc4csc(C)n4)CC3)CC2)nn1,-14.81,5.839,12.98
CCc1ncc2c(n1)CN(c1cc(NC3CC3)nc(N)n1)C2,2.837,19.33,-
CN(C)S(=O)(=O)N1CCC(C)(c2ncc(C(N)=O)s2)CC1,-17.99,22.78,-35.87
CCc1ccc2nc(C)cc(C(=O)N[C@@H]3C[C@@H](CO)N(C)C3)c2c1,9.697,16.45,-
CN(Cc1ccc(F)cc1)C(=O)CN1CCOC(Cn2cncn2)C1 (centres undefined),11.85,-2.347,-51.94
Cc1nc(-c2cccnc2)ncc1C(=O)N1CCCCC(N)C1 (centres undefined),-38.64,10.63,1.761
Cc1c(CC(=O)N2CCSCC2)nnn1-c1cccc(Cl)c1,-9.918,5.722,-10.21
Cc1cc(CNC(=O)CC2CN(C(=O)OC(C)(C)C)C2)ccc1F,-26.04,14.7,2.327
Cn1ccnc1CN1CCC(CCC(=O)Nc2ccccc2Cl)CC1,-43.98,6.989,39.98
Cc1ccnn1CCC(=O)N1CCCC1c1cc2cccnc2[nH]1 (centres undefined),-,19.15,-
COc1cc2ccn(CCCO)c(=O)c2cc1F,-9.225,12.43,-
Cc1noc(C)c1CN1CCn2c(COC(C)C)nnc2C1,2.698,7.843,15.35
CCN(C(=O)Cn1cc(Cl)cn1)c1ccccc1,-45.78,9.218,-14.66
COc1cnc(N2CC(N3CCOCC3)C2)nc1-c1ccnn1C,-101.5,26.89,-
CCn1c(Cn2ccnc2)nnc1C1CCN(Cc2ccc(C)o2)CC1,-3.217,3.226,-31.18
COCCCNC(=O)CN(C)C(=O)c1ccccc1O,-10.97,19.37,-
[H][C@]12CC[C@]([H])(CN(C3CCOCC3)C1)N(Cc1cnc(NCCC)nc1)C2,13.33,-,16.81
O=C(NC1CCCCC1)N1C[C@@H]2OCCN(C(=O)c3ccco3)[C@@H]2C1,-,-0.6849,-
Cn1cc(CN2CCC(CCC(=O)NC3CC3)CC2)cn1,-6.803,3.866,7.633
CCOc1ccc(Cl)c(C(=O)N2CCN(C(=O)OC)CC2)n1,-11.46,19.09,-8.718
[H][C@]12CCN(S(=O)(=O)c3cccc(F)c3)[C@@]1([H])CC[C@@H](COC)O2,-3.529,-,-
Cn1cc(CNC[C@H]2Cn3ccnc3CO2)c2ccccc21,23.69,10.51,34.54
O=C(NC1CC1)c1ccnc(N2CCOC(c3ccc(Cl)c(Cl)c3)C2)c1 (centres undefined),-41.42,7.263,-22.68
CCCNC(=O)C1CCN(Cc2csc(C(C)(C)C)n2)CC1,14.13,6.103,-21.57
Cc1cc(-c2cnc(N3CCNC(=O)C3)nc2-c2ccc(C)o2)on1,7.902,10.8,-
Cn1ncc2ccc(C3CCCN(Cc4ccsc4)C3)nc21 (centres undefined),4.36,20.56,24.16
OC(COCc1ccco1)CSc1nnc2ccccn12 (centres undefined),14.87,14.66,9.774
CN(Cc1cccs1)C1CCC[C@@H]2CN(C(=O)c3cccn3C)C[C@H]12 (some centres undefined),-,9.783,-
CCCC1SCCN1C(=O)c1ccc(-n2ncc(C#N)c2N)cc1 (centres undefined),22.91,16.67,16.07
Cc1nc2ccccn2c1CN(Cc1cccnc1)CC1CCCO1 (centres undefined),-8.904,7.389,-1.801
Cc1nc(CN2CCCC(N(C)CC(=O)Nc3cccnc3)C2)no1 (centres undefined),19.5,4.467,-76.71
CCOC(=O)N1CCC(C(=O)Nc2nnc(C(F)(F)F)[nH]2)CC1,-25.7,0.2786,-60.79
O=C(O)C(F)(F)F.[H][C@@]12CN(CC3CC3)CC[C@]1([H])CN(c1ncc(C)cn1)C2,-15.47,-,-29.52
Cc1cccnc1CNC[C@H]1Cn2cc(-c3ccccc3)nc2CO1,18.66,9.153,19.76
COCCN1C[C@@H]2OCCN(c3ccnc(N(C)C)n3)[C@@H]2C1,-,-15.34,-
CNS(=O)(=O)c1cc(C)c2[nH]c(=O)cc(C)c2c1,-1.265,10.36,0.5136
CCCn1nnnc1CN(C)C(C)c1ccc(C)cc1 (centres undefined),-18.74,8.462,18.09
CNC(=O)[C@@H]1C[C@@H](NC(=O)Cc2cccs2)CN1C1CCOCC1,9.246,8.38,-13.86
CN(Cc1nnc(C2CCC2)o1)C(C(N)=O)c1cccc(F)c1 (centres undefined),3.031,15.74,22.87
CCc1ncnc2c1CCN(Cc1nccs1)CC2,-,5.839,-
Cc1cc(NC(=O)NCC(c2ccc(C)o2)N2CCOCC2)n(C)n1 (centres undefined),-8.997,0.5556,-51.66
N#Cc1ccc(OCCNCCn2cccn2)cc1,-16.91,10.6,2.308
O=C(c1ccc2c(c1)CCC2)N1C[C@@H](CN2CCOCC2)[C@@H](CO)C1,9.302,16.59,20.16
Cc1cccc(C(=O)N2C[C@@H](OCc3ccncc3)[C@@H]3OCCC[C@@H]32)n1,-,18.16,-
CCCn1nnnc1CN(c1ccc(N2CCOCC2)cc1)C(C)C,7.194,-3.846,100.7
CNC(=O)C1Cn2ccnc2C2(CCN(C(=O)c3ccccn3)CC2)O1 (centres undefined),14.02,6.849,14.37
O=C([C@H]1C[C@H]2OCC[C@H]2N(Cc2ccccn2)C1)N1CCCCO1,-,17.41,-
O=C(O)C(F)(F)F.O=C(O)C(F)(F)F.O=C1NC2(CCN(Cc3ccoc3)CC2)CC1c1ccncc1 (centres undefined),-24.23,-,-53.55
CN(C)C[C@H]1OC[C@@H]2CCN(C(=O)NCc3cccc(F)c3)C[C@@H]21,-,12.28,-
COCCn1ccc2cc(NC(=O)N(C)C(C)CSC)ccc21 (centres undefined),5.919,3.133,4.478
Cc1oncc1C(=O)N1CC[C@H]2[C@H](C[C@@H](CN(C)C)N2CC2CC2)C1,-,14.84,-
CCOc1ccc(NC(=O)c2scnc2CC)cc1CO,-1.398,1.003,-3.627
O=C(O)C(F)(F)F.O=C(O)C(F)(F)F.[H][C@@]12CN(Cc3ccc(F)cc3)C[C@]1([H])C(=O)N(CCN1CCCC1)C2,-15.96,-,-24.72
Cc1cccc(CN(C(=O)CCn2cncn2)C(C)C)c1,14.56,13.94,37.72
CCc1nc(C(=O)N2CCN(CC)CC2)nn1-c1ccccc1Cl,-17.02,12.57,-25.99
Cc1ccc2oc(=O)n(CC(=O)N3CCC4(CC3)CN(C)C(=O)O4)c2c1,8.056,4.861,-34.75
[H][C@@]12CCCO[C@]1([H])[C@H](NS(C)(=O)=O)CN(Cc1cccc(C)n1)C2,-9.804,-,9.253
Cc1ccc(CN(C)C(=O)C(C)n2cncn2)o1 (centres undefined),-5.598,5.398,-
CNC(=O)Cn1c(-c2ccco2)nn(-c2ccccc2OC)c1=O,-7.095,1.535,-0.5787
Cc1cnn(CC(C)NCc2ccc(C#N)cc2)c1 (centres undefined),-25.94,10.47,-25.15
CNC(=O)CN(C(=O)c1ccc(SC)o1)c1cccc(F)c1,-11.04,13.94,22.68
CN(C)C(=O)CN1CCC2(CCCN(Cc3cccn3C)C2)C1=O (centres undefined),-,4.53,-
CN1CCCN(C[C@@H]2CN(C(=O)CCC3CCCC3)C[C@@H]2CO)CC1,24.12,18.11,8.232
Cn1c2c(ccc1=O)CC(NC(=O)c1ccsc1)CC2 (centres undefined),-7.508,6.593,9.441
Cc1ccnc(C2CCN(c3ccnc(C)n3)C2)n1 (centres undefined),-10.42,10.25,-26.99
O=C(Cn1cc(C2CC2)nn1)NC(c1ccc(Cl)cc1)C1CC1 (centres undefined),-11.07,12.2,9.993
COCCSc1ccc(C(C)NC(=O)Nc2cccnc2)cc1 (centres undefined),-4.082,12.57,25.72

Some entries from above, unchanged:

| compound | Mtb heat-shock | LdMetRS | Mtb growth Cornell |
|---|---|---|---|
| `COCCCNC(=O)CN(C)C(=O)c1ccccc1O` | -10.97 | 19.37 | - |
| `Cc1cccc(CN(C(=O)CCn2cncn2)C(C)C)c1` | 14.56 | 13.94 | 37.72 |
| `[H][C@@]12CCCO[C@]1([H])[C@H](NS(C)(=O)=O)CN(Cc1cccc(C)n1)C2` | -9.804 | - | 9.253 |
| `Cn1cc(CNC[C@H]2Cn3ccnc3CO2)c2ccccc21` | 23.69 | 10.51 | 34.54 |
| `COCCN1C[C@@H]2OCCN(c3ccnc(N(C)C)n3)[C@@H]2C1` | - | -15.34 | - |
| `Cn1ncc2ccc(C3CCCN(Cc4ccsc4)C3)nc21` (centres undefined) | 4.36 | 20.56 | 24.16 |
| `CNC(=O)[C@@H]1C[C@@H](NC(=O)Cc2cccs2)CN1C1CCOCC1` | 9.246 | 8.38 | -13.86 |
| `Cc1ccc(CN(C)C(=O)C(C)n2cncn2)o1` (centres undefined) | -5.598 | 5.398 | - |